In article PMC4900609 (PLoS ONE, 2016):

Molecular target: the molecule itself
Assay: SEC; gel filtration of the purified reagents; elution volumes compared with expected sizes

B1: affibody-dCK fusion protein (anti-Her2 affibody fused to engineered human deoxycytidine kinase) (designed binder)
chain: VDNKFNKEMRNAYWEIALLPNLNNQQKRAFIRSLYDDPSQSANLLAEAKKLNDAQAPKMATPPKRSCPSFSASSEGTRIKKISIEGNIAAGKSTFVNILKQLSEDWEVVPEPVARWCNVQSTQDEFEELTMEQKNGGNVLQMMYEKPERWSFTFQTYACLSMIRAQLASLNGKLKDAEKPVLFFERSVYSARYIFASNLYESESMNETEWTIYQDWHDWMNNQFGQSLELDGIIYLQATPETCLHRIYLRGRNEEQGIPLEYLEKLHYKHESWLLHRTLKTNFDYLQEVPILTLDVNEDFKDKYESLVEKVKEFLSTL
- stoichiometry N: 2
